# Results taken from article PMC6325109, “The transcription factor STAT5 catalyzes Mannich ligation reactions yielding inhibitors of leukemic cell proliferation” (Nature Communications, 2019).
# Construct, isoform or probe ends are uncertain for at least one entry. At least one result comes from cells or an extract, where the contact may be indirect.
# System: STAT5 dimer (STAT5a/STAT5b not distinguished in EMSA)
# Test: EMSA
# Details: without inhibitor, compound 10 inhibits the complex; EMSA: Active Motif Gelshift Chemiluminescent kit, salt and pH not stated; protein in an extract
sequence,measurement,value
AGATTTCTAGGAATTCAATCC (double strand) [STAT5 consensus EMSA probe],binding result,binds
